Source: patent publication US8263046B2, “N-phenyl-N-pyridinyl-benzamides and benzenesulfonomides having cooling properties” (Givaudan S.A., priority 2005, dated 2012)
At least one structure is not confirmed: it was looked up by name or label, or the drawing left a doubt.

System: panelist
Experiment: Application in toothpaste: panelist's teeth brushed with toothgel
Type: in vivo
Details: opaque toothgel 92.0 g, 7.5 g of 2% (w/w) solution in propylene glycole, 0.5 g peppermint oil; brushing, rinsed with water

`COc1ccc(C(=O)N(CCc2ccccn2)c2ccccc2)cc1` [Example 1, 4-Methoxy-N-phenyl-N-[2-(pyridin-2-yl)ethyl]benzamide] was tested, and the “cooling sensation in the mouth” value was “longlasting cooling sensation”.
